Assay results published in paper PMC7949123.
Results are given in words; binding and its absence hold for the method and conditions named. Some results given as binding are weak or reduced against the parent protein; the word gives no strength.

biological target: PKCα catalytic domain (residues 335–672) (UniProt P17252); test: FRET or BRET; intramolecular SPASM FRET sensor: both partners on one chain, joined by a 10 nm ER/K linker flanked by mCerulean/mCitrine; 25 nM protein; PKC buffer (20 mM Hepes pH 7.5, 5 mM MgCl2, 0.5 mM EGTA, 2 mM DTT); room temperature, 30 min; FRET ratio 525/475 nm; apo and with 1 μM BimI, 1 μM sotrastaurin, 1 μM staurosporine, 10 μM tetrahydrostaurosporine, 100 μM sangivamycin or 100 μM toyocamycin; both purified

binding, binds:
PKCα regulatory domains (residues 1–293) (from UniProt P17252 1-293) (domain or fragment)
PKCα pseudo substrate and C1a domains (residues 1–100) (from UniProt P17252 1-100) (domain or fragment)
PKCα C1a domain (residues 32–100) (from UniProt P17252 32-100) (domain or fragment)
